Publication PMC1079803
These are yes or no findings as the source states them, for the method shown.

Legend:
rab2 S20N = target: T1, rab2 S20N (UniProt P61019); experiment: two-hybrid; co-transformation of bait (pAS2-1) and prey (pGADT7) constructs in yeast Y190; plates lacking Trp, Leu and His with 50 mM 3-aminotriazol (his3), 30°C for 5-7 days; β-galactosidase filter lift with X-gal (lacZ)
T1 sequence: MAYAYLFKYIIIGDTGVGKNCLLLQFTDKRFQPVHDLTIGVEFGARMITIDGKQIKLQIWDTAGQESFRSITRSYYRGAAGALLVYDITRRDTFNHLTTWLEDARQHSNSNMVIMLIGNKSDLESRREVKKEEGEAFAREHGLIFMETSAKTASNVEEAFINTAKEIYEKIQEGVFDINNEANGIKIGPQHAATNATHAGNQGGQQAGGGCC

rab6 Q72R = target: T2, rab6 Q72R (UniProt P20340); experiment: as above
T2 sequence: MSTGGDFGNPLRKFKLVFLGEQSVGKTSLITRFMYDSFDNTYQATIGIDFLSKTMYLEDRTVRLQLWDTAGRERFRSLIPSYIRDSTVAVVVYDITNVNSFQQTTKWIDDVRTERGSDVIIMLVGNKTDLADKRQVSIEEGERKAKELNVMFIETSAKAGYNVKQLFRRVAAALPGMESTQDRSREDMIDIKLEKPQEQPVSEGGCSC

binding (rab2 S20N): no binding
binding (rab6 Q72R): no binding
Substance: Iporin ΔN847 (human) (domain or fragment)
